# In PubChem BioAssay (NCATS):
# This list was built around the results that the source calls inconclusive (neither active nor inactive); the mix of calls is not that of the screen. Where the call is inconclusive, the potency comes from a doubtful curve fit. Activity calls are given as the source filed them. Unless noted, calls follow the shape of the dose curve; as a rule, active = well fitted curve in the direction sought with a large enough effect; inconclusive = small, poorly fitted or top-dose-only effect, or another doubt; inactive = no such curve, though single readings can be large; an effect the other way counts as inactive or inconclusive.
# Key:
# [1] = Quantitative High-Throughput drug screen in 47 multiple myeloma cell lines against the NCATS MIPE library collection: VP6_DJ cell viability assay (AID 1919867); also: nearly all actives have a fitted effect of over 40% in size
# In short: (§1)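 Myeloma cells (500/well) treated with MIPE 4.0 compounds for 48 h at 37 °C, 5% CO2. Viability read as ATP via CellTiter-Glo luminescence after 5 min at RT; DMSO-only wells = 100%, media-only = 0% viability.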
# [2] = Quantitative High-Throughput drug screen in 47 multiple myeloma cell lines against the NCATS MIPE library collection: PE2_PLB cell viability assay (AID 1919869); conditions: PE2_PLB myeloma cells viability, ATP luminescence, 48 h; viability (% of control): at 45.8 µM (top of the series); also: nearly all actives have a fitted effect of over 35% in size
# In short: as §1
# [3] = Quantitative High-Throughput drug screen in 47 multiple myeloma cell lines against the NCATS MIPE library collection: OPM2_DSMZ cell viability assay (AID 1919872); also: nearly all actives have a fitted effect of over 30% in size
# In short: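 Luminescent ATP measurement with CellTiter-Glo gives viability, scaled between DMSO-only wells (100%) and media-only wells (0%). Cells, 500 per well, faced library compounds for 48 hours at 37C.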
# [4] = Quantitative High-Throughput drug screen in 47 multiple myeloma cell lines against the NCATS MIPE library collection: KMS11_JCRBsus cell viability assay (AID 1919873); also: nearly all actives have a fitted effect of over 50% in size
# In short: as §1
# [5] = Quantitative High-Throughput drug screen in 47 multiple myeloma cell lines against the NCATS MIPE library collection: KMS28BM_JCRB cell viability assay (AID 1919874); conditions: CellTiter-Glo ATP, 48 h; series mostly up to 45.8 µM; also: nearly all actives have a fitted effect of over 35% in size
# In short: as §1
# [6] = qHTS for identification of novel therapeutic agents for treatment of microphthalmiaassociated transcription factor (MiT) renal cell carcinoma (RCC) (AID 1963991; calls by dose curve); conditions: TFE3-RCC UOK109 viability, CellTiter-Glo, 48 h; active = Z-AUC below -0.8 in all three lines
# In short: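 Three TFE3-fusion RCC lines (UOK109, UOK124, UOK145), 500 cells/well in complete medium, were treated with MIPE 4.0 compounds for 48 hours at 37 C. Viability was by CellTiter-Glo luminescence, normalized to DMSO (100%) and empty wells (0%); curves fitted over 11 concentrations.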
# [7] = Quantitative High-Throughput drug screen in 47 multiple myeloma cell lines against the NCATS MIPE library collection: RPMI8226_ATCC cell viability assay (AID 1919871); conditions: RPMI8226 myeloma viability, CellTiter-Glo ATP luminescence, 48 h; viability (% of control): at 45.8 µM (top of the series); also: nearly all actives have a fitted effect of over 30% in size
# In short: as §1
# [8] = Quantitative High-Throughput drug screen in 47 multiple myeloma cell lines against the NCATS MIPE library collection: PCM6_Riken cell viability assay (AID 1919870); also: nearly all actives have a fitted effect of over 30% in size
# In short: as §1
# [9] = qHTS profiling for inhibitors of Plasmodium falciparum proliferation (AID 504749); also: nearly all actives have a fitted effect of over 60% in size; conditions: P. falciparum in erythrocytes, SYBR Green DNA, 72 h; Potency: parasite line B unless noted; series mostly up to 28.7 µM
# In short: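 P. falciparum-infected erythrocytes (0.3% parasitemia, 2.5% hematocrit final) were exposed to compounds for 72 h at 37 C in 5% CO2, then lysed with SYBR Green buffer overnight at room temperature; parasite DNA fluorescence was normalized to artemisinin and DMSO controls.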
# [10] = Quantitative High-Throughput drug screen in 47 multiple myeloma cell lines against the NCATS MIPE library collection: UTMC2_PLB cell viability assay (AID 1919868); conditions: CellTiter-Glo ATP luminescence, 48 h; series mostly up to 45.8 µM; also: nearly all actives have a fitted effect of over 55% in size
# In short: as §1
# Potency is read from the fitted curve at half-maximal effect.
compound,measurement,setting,value
C[C@H]1COc2c(N3CCN(C)CC3)c(F)cc3c(=O)c(C(=O)O)cn1c23,Potency,[1],"inconclusive: 0.0418 µM [rising, full curve]"
same,Potency,[2],inactive
same,Potency,[3],inactive
same,Potency,[4],inactive
same,Potency,[5],inactive
CC1(O)CC(c2nc(-c3ccc4ccc(-c5ccccc5)nc4c3)c3c(N)nccn23)C1 (configuration not stated),Potency,[1],active: 0.166 µM
same,Potency,[4],active: 0.187 µM
same,Potency,[6],inconclusive: 37.2 µM
C=CC(=O)Nc1cccc(Oc2nc(Nc3ccc(N4CCN(C)CC4)cc3OC)ncc2Cl)c1,Potency,[1],active: 0.0187 µM
same,Potency,[7],"inconclusive: 26.4 µM [cytotoxic, single point]"
same,Potency,[3],"inconclusive: 33.2 µM [cytotoxic, single point]"
same,Potency,[5],active: 20.9 µM
same,Potency,[6],"inconclusive: 0.59 µM [falling, partial curve]"
CC=C1C2C=C(C)CC1(N)c1ccc(=O)[nH]c1C2 (configuration not stated),Potency,[1],"inconclusive: 0.0037 µM [rising, full curve, poor fit]"
same,Potency,[8],"inconclusive: 0.003 µM [rising, full curve, poor fit]"
same,Potency,[3],inactive
same,Potency,[4],inactive
O=C1CCC(N2C(=O)c3ccccc3C2=O)C(=O)N1 (configuration not stated),Potency,[1],"inconclusive: 5.26 µM [cytotoxic, partial curve, poor fit]"
same,Potency,[7],"inconclusive: 11.8 µM [cytotoxic, single point]"
same,Potency,[4],"inconclusive: 0.0264 µM [cytotoxic, full curve, poor fit]"
same,Potency,[9],"inconclusive: 11.2 µM [inhibitor, single point]"
CCCCS(=N)(=O)CCC(N)C(=O)O (configuration not stated),Potency,[10],"inconclusive: 0.0026 µM [rising, full curve, poor fit]"
same,Potency,[2],inactive
Cc1cc(-c2ncc(CC(=O)Nc3ccc(-c4cnccn4)cn3)cc2C)ccn1,Potency,[10],"inconclusive: 18.7 µM [cytotoxic, partial curve, poor fit]"
same,Potency,[2],active: 18.7 µM
same,Potency,[8],"inconclusive: 14.8 µM [cytotoxic, partial curve]"
same,Potency,[7],"inconclusive: 18.7 µM [cytotoxic, partial curve, poor fit]"
same,Potency,[3],"inconclusive: 13.2 µM [cytotoxic, partial curve, poor fit]"
same,Potency,[4],active: 1.87 µM
same,Potency,[5],inactive
same,Potency,[6],"inconclusive: 18.7 µM [falling, partial curve]"
CCOc1ccn(-c2ccc(F)cc2)c(=O)c1C(=O)Nc1ccc(Oc2ccnc(N)c2Cl)c(F)c1,Potency,[1],"inconclusive: 23.5 µM [cytotoxic, partial curve, poor fit]"
same,Potency,[8],"inconclusive: 16.6 µM [cytotoxic, partial curve, poor fit]"
same,Potency,[7],"inconclusive: 20.9 µM [cytotoxic, partial curve, poor fit]"
same,Potency,[4],"inconclusive: 26.4 µM [cytotoxic, single point]"
same,Potency,[6],"inconclusive: 14.8 µM [falling, partial curve]"
CN[C@@H]1CN(c2ccc3c(=O)c(C(=O)O)cn(-c4nccs4)c3n2)C[C@@H]1OC,Potency,[1],"inconclusive: 6.45 µM [cytotoxic, partial curve, poor fit]"
same,Potency,[3],"inconclusive: 14.4 µM [cytotoxic, single point]"
same,Potency,[4],"inconclusive: 2.04 µM [cytotoxic, partial curve, poor fit]"
same,Potency,[5],"inconclusive: 1.82 µM [cytotoxic, full curve, poor fit]"
same,Potency,[6],"inconclusive: 8.12 µM [falling, partial curve]"
Fc1ccc([C@@H]2CCNC[C@H]2COc2ccc3c(c2)OCO3)cc1,Potency,[1],"inconclusive: 0.935 µM [cytotoxic, full curve, poor fit]"
same,Potency,[2],"inconclusive: 37.2 µM [cytotoxic, single point]"
same,Potency,[7],"inconclusive: 20.9 µM [cytotoxic, partial curve, poor fit]"
same,Potency,[5],active: 20.9 µM
same,Potency,[6],inconclusive: 20.9 µM
Cc1ccc(C(=O)Nc2ccc(CN3CCN(C)CC3)c(C(F)(F)F)c2)cc1C#Cc1cnc2cccnn12,Potency,[1],active: 1.32 µM
same,Potency,[7],active: 11.8 µM
same,Potency,[4],active: 1.48 µM
same,Potency,[6],"inconclusive: 5.26 µM [falling, partial curve]"
CCc1c(O)cc(O)c(C(=O)c2ccc(OCCN3CCOCC3)c(OC)c2)c1CC(=O)N(CCOC)CCOC,Potency,[1],active: 1.18 µM
same,Potency,[7],"inconclusive: 1.05 µM [cytotoxic, full curve]"
same,Potency,[6],"inconclusive: 23.5 µM [falling, partial curve]"
Clc1ccc(C2(c3ccc(-c4cn[nH]c4)cc3)CCNCC2)cc1,Potency,[1],active: 13.2 µM
same,Potency,[7],"inconclusive: 26.4 µM [cytotoxic, single point]"
same,Potency,[4],"inconclusive: 37.2 µM [cytotoxic, single point]"
same,Potency,[6],"inconclusive: 37.2 µM [falling, single point]"
